{"source": "PubChem BioAssay AID595", "about": "(National Center for Advancing Translational Sciences (NCATS), 2007)", "note": "Hit rate of the full screen: of about 71,000 compounds, about 310 (0.44%) were called active. This list was built around the results that the source calls inconclusive (neither active nor inactive); the mix of calls is not that of the screen. Calls come from the whole dose curve; as a rule, active = well fitted curve in either direction with a large enough effect; inconclusive = small, poorly fitted or top-dose-only effect, or another doubt; inactive = flat fitted curve, though single readings scatter. Where the call is inconclusive, the potency comes from a doubtful curve fit. Some compounds were tested as several samples or in several runs, with calls that do not always agree. % is set by controls: 0 for no effect and ±100 for the full control effect; potency is the fitted concentration of half-maximal effect.", "data": [{"tested_on": "Hsp90 C-terminal peptide / TPR2A (Hop) interaction, human", "test": "qHTS Assay for Disrupters of an Hsp90 Co-Chaperone Interaction", "conditions": "AlphaScreen TPR2A-His6 binding biotin-Hsp90 C-terminal peptide; activity change, negative = inhibition: at 57 µM (top of the series) unless noted", "values": [{"smiles": "Nc1nc(SCc2ccc([N+](=O)[O-])cc2)c2ncn([C@@H]3O[C@@H](CO)[C@@H](O)[C@H]3O)c2n1", "activity change, negative = inhibition": "inactive: 1.42%"}, {"smiles": "CCCCCCCCC1CO1", "note": "(stereo not given)", "activity change, negative = inhibition": "inactive: -1.42%"}, {"smiles": "CCCc1nc(-c2ccc(-c3ccc(F)cc3)cc2)no1", "Potency": "inconclusive: 12.6 µM [activator, partial curve]"}, {"smiles": "CCCn1c(CN2CCCCC2C)nc2c1c(=O)n(C)c(=O)n2C", "note": "(stereo not given)", "Potency": "inconclusive: 31.6 µM [inhibitor, single point]"}, {"smiles": "Cn1ccnc1C(O)(c1nnc(-c2ccccc2)o1)C(F)(F)F", "note": "(stereo not given)", "activity change, negative = inhibition": "inconclusive: 48.8%"}, {"smiles": "COc1ccc(N2CCn3c2nc2c3c(=O)n(CCN3CCOCC3)c(=O)n2C)cc1", "activity change, negative = inhibition": "inconclusive: 44.2%"}, {"smiles": "O=C(NCCC1=CCCCC1)C1CCCN(S(=O)(=O)c2cnc[nH]2)C1", "note": "(stereo not given)", "activity change, negative = inhibition": "inconclusive: 50.4%"}, {"smiles": "Nc1ccc(Nc2ccccc2N)cc1", "Potency": "inconclusive: 15.8 µM [inhibitor, single point]"}, {"smiles": "CCNc1c2c3c(cccc3n(C)c1=O)C(=O)c1ccccc1-2", "Potency": "inconclusive: 20 µM [activator, partial curve]"}, {"smiles": "CN(C)c1nc(SCCOC(=O)c2ccccc2)nc(N(C)C)n1", "Potency": "inconclusive: 25.1 µM [activator, partial curve]"}, {"smiles": "CCOC(=O)C(NCc1ccccn1)(NC(=O)c1cccnc1)C(F)(F)F", "note": "(stereo not given)", "Potency": "inconclusive: 25.1 µM [inhibitor, single point]"}, {"smiles": "CCN(CC)c1ccc2c(c1)CCCN2", "Potency": "active: 15.8 µM"}, {"smiles": "c1ccc(-c2cccc(-c3ccccn3)n2)nc1", "Potency": "active: 3.16 µM"}, {"smiles": "Cc1ccccc1-c1ccc2ncnc(-n3ccnc3)c2c1", "activity change, negative = inhibition": "inactive: -7.8%"}, {"smiles": "O=C(c1cc2c(=O)oc3ccccc3c2s1)N1CCN(c2ncccn2)CC1", "activity change, negative = inhibition": "inactive: 2.14%"}, {"smiles": "COc1ccc(-c2cc(C(=O)N3CCCc4ccccc43)no2)cc1OC", "activity change, negative = inhibition": "inactive: 0.699%"}, {"smiles": "CS(=O)(=O)N1CCC2(CC1)CN(c1cccc(-c3ccccc3)c1)C2", "Potency": "inconclusive: 20 µM [inhibitor, partial curve]"}, {"smiles": "O=c1c(-c2cccs2)nc2cnc(Oc3cccc(Cl)c3)nc2n1C1CC1", "Potency": "inconclusive: 3.98 µM [activator, single point]"}, {"smiles": "Oc1c(C(Nc2nc3ccccc3s2)c2ccco2)ccc2cccnc12", "note": "(stereo not given)", "Potency": "inconclusive: 31.6 µM [inhibitor, partial curve]"}, {"smiles": "O=C(CCN1C(=O)c2ccccc2C1=O)N1CCN(C(=O)c2ccccc2)CC1", "Potency": "inconclusive: 7.94 µM [inhibitor, partial curve]"}, {"smiles": "CC(C)CN1CC[C@@]2(CCCN(C(=O)c3cc(C(F)(F)F)cc(C(F)(F)F)c3)C2)C1", "activity change, negative = inhibition": "inactive: -1.25%"}, {"smiles": "O=C(Nc1ccc2c(c1)OCO2)c1cccc2c1C(=O)N(C1CCCCC1)C2", "activity change, negative = inhibition": "inconclusive: 30.8%"}, {"smiles": "O=C(c1ccncc1)N1CCC2(CC1)CN(Cc1cc(C(F)(F)F)cc(C(F)(F)F)c1)C2", "activity change, negative = inhibition": "inconclusive: 66.7%"}, {"smiles": "CCn1cc(SCC(N)=O)c2ccccc21", "activity change, negative = inhibition": "inactive: -1.11%"}, {"smiles": "COc1ccc(-c2noc(CCN3C(=O)c4ccccc4C3=O)n2)cc1OC", "activity change, negative = inhibition": "inactive: -2.35%"}, {"smiles": "O=C(Nc1ccc2nn(-c3ccccc3)nc2c1)c1ccc2c(c1)OCCO2", "activity change, negative = inhibition": "inactive: 2.86%"}, {"smiles": "O=C(Cn1cnc2ccccc2c1=O)NCC(=O)N1CCN(c2ccccn2)CC1", "activity change, negative = inhibition": "inactive: -4.28%"}, {"smiles": "O=C1c2ccccc2C(=O)N1CCCCCc1nc(-c2ccccc2)no1", "Potency": "inconclusive: 31.6 µM [activator, single point]"}, {"smiles": "Cc1nc2ncnn2c(N2CCN(C(c3ccccc3)c3ccccc3)CC2)c1C", "activity change, negative = inhibition": "inconclusive: 20.1%"}, {"smiles": "COC(=O)c1ccc(OC)c(CSc2nnc(COc3ccc(OC)cc3)o2)c1", "Potency": "inconclusive: 31.6 µM [activator, single point]"}, {"smiles": "CC(=O)N1CCN=C1SCc1ccc(Br)cc1", "activity change, negative = inhibition": "inconclusive: 51.5%"}, {"smiles": "CCOc1ccccc1Nc1ncnc2ccccc12", "activity change, negative = inhibition": "inconclusive: 59.7%"}, {"smiles": "CCCCC1(CC)C(=O)NC(=O)NC1=Nc1ccc(OC)cc1", "note": "(stereo not given)", "activity change, negative = inhibition": "inconclusive: 50.8%"}, {"smiles": "O=C(Cn1cnc2c(cnn2-c2ccc(F)cc2)c1=O)N1CCN(c2ccccc2F)CC1", "activity change, negative = inhibition": "inconclusive: 50.9%"}, {"smiles": "Cc1nc(N=Nc2cc(S(=O)(=O)O)ccc2S(=O)(=O)O)c(COP(=O)(O)O)c(C=O)c1O", "activity change, negative = inhibition": "inactive: -5.25%"}, {"smiles": "Cc1ccc2cc3c(NC(=O)c4cccnc4)nn(C)c3nc2c1", "Potency": "inconclusive: 39.8 µM [inhibitor, single point]"}, {"smiles": "Cc1ccc(O)c(-c2cc(C(=O)NCc3ccncc3)[nH]n2)c1", "activity change, negative = inhibition": "inconclusive: 32.9%"}, {"smiles": "COc1ccc(-n2nnnc2SCC(=O)Nc2ccc3c(c2)OCCO3)c(OC)c1", "activity change, negative = inhibition": "inactive: -3.99%"}, {"smiles": "CN1CCN(C(c2cccnc2)c2ccc3cccnc3c2O)CC1", "note": "(stereo not given)", "Potency": "active: 3.16 µM"}, {"smiles": "CCn1c(-c2ccsc2)nc2c1c(=O)[nH]c(=O)n2Cc1ccccc1", "activity change, negative = inhibition": "inconclusive: 36.8%"}, {"smiles": "O=C(C1CCCN(S(=O)(=O)c2cnc[nH]2)C1)N(CCc1ccccc1)Cc1ccccc1", "note": "(stereo not given)", "activity change, negative = inhibition": "inconclusive: 41.3%"}, {"smiles": "CC(C)(C)n1nnnc1C(c1cccs1)N(Cc1ccccc1)Cc1ccco1", "note": "(stereo not given)", "activity change, negative = inhibition": "inactive: 20.2%"}, {"smiles": "C=Cc1cccc(C)c1", "activity change, negative = inhibition": "inactive: 1.77%"}, {"smiles": "CC1=CCC(COC(=O)Nc2ccccc2)CC1", "note": "(stereo not given)", "Potency": "inconclusive: 25.1 µM [activator, single point]"}, {"smiles": "Cc1n[nH]c(C)c1S(=O)(=O)N1CCCC(C(=O)NCC2COc3ccccc3O2)C1", "note": "(stereo not given)", "activity change, negative = inhibition": "inactive: -0.626%"}, {"smiles": "CS(=O)(=O)Nc1cccc(-c2nc(Nc3ccc(F)cc3)c3ccccc3n2)c1", "activity change, negative = inhibition": "inconclusive: 101%"}, {"smiles": "CCn1nc(NC(=O)c2ccccn2)c2cc3cc(C)ccc3nc21", "Potency": "inconclusive: 15.8 µM [activator, partial curve]"}, {"smiles": "CCCn1c(C)nc2c(NC(C)CN(C)C)nc(C)nc21", "note": "(stereo not given)", "activity change, negative = inhibition": "inactive: -1.09%"}, {"smiles": "COc1ccc(N2CCN(C(=O)c3cc4c(-c5cccc(OC)c5)nn(C)c4s3)CC2)cc1", "Potency": "inconclusive: 12.6 µM [inhibitor, partial curve]"}, {"smiles": "CCn1c(SCC(=O)OCc2ccccc2)nnc1-c1ccco1", "activity change, negative = inhibition": "inconclusive: 36.4%"}, {"smiles": "CCCCOc1ccc(S(=O)(=O)N2CCCCCC2)cc1", "Potency": "inconclusive: 20 µM [activator, partial curve]"}, {"smiles": "CC(C)N(C)C1CCN(C(=O)Nc2ccc(Cl)c(Cl)c2)CC1", "activity change, negative = inhibition": "inactive: 0.237%"}, {"smiles": "O=c1ccc2cc3ccoc3cc2o1", "activity change, negative = inhibition": "inactive: 0.743%"}, {"smiles": "Cc1noc(C)c1CSc1nnc(-c2ccccc2)n1Cc1ccco1", "activity change, negative = inhibition": "inactive: -0.05%"}, {"smiles": "CN(CCc1ccccn1)c1ccc2c(c1)C(=O)c1ccccc1-2", "Potency": "inconclusive: 3.98 µM [inhibitor, single point]"}, {"smiles": "CN(C)Cc1ccccc1-c1nc(N(C)C)c2ccccc2n1", "activity change, negative = inhibition": "inactive: -1.24%"}, {"smiles": "O=C(O)[C@H]1CN(CCCP(=O)(O)O)CCN1", "activity change, negative = inhibition": "inconclusive: 67.9%"}, {"smiles": "O=C(O)c1ncn(Cc2ccccc2)c1C(=O)O", "Potency": "inconclusive: 39.8 µM [inhibitor, single point]"}, {"smiles": "CN(C)c1ccc(NC(=O)c2ccc(COc3cccc(Cl)c3)o2)cc1", "Potency": "inconclusive: 31.6 µM [inhibitor, single point]"}, {"smiles": "COC(=O)COc1cccc(NC(=O)c2cccs2)c1", "activity change, negative = inhibition": "inconclusive: 48.1%"}, {"smiles": "Cc1ccc(Cl)cc1N1CCN(C(=O)c2ccc(NS(=O)(=O)c3c(C)noc3C)cc2)CC1", "activity change, negative = inhibition": "inactive: -5.92%"}, {"smiles": "COc1ccc(C2CC(=O)N3CN(c4ccc(C)c(Cl)c4)CSC3=C2C#N)cc1", "note": "(stereo not given)", "activity change, negative = inhibition": "inactive: -4.12% [at 2.3 µM]"}, {"smiles": "Cc1nc2sc(C(=O)O)c(N)c2c2c1COC(C)(C)C2", "activity change, negative = inhibition": "inactive: -0.328%"}, {"smiles": "CCc1cc(C(=O)OC)c(N2C(=O)C3C4C=CC(C4)C3C2=O)s1", "note": "(stereo not given)", "activity change, negative = inhibition": "inactive: 0.099%"}, {"smiles": "CCOC(=O)c1ccccc1NC(=O)C(C)Oc1ccccc1", "note": "(stereo not given)", "Potency": "inconclusive: 31.6 µM [activator, single point]"}, {"smiles": "CCCCOC(=O)CN1C(=O)c2ccc(C(=O)OCCCC)cc2C1=O", "Potency": "active: 25.1 µM [activator]"}, {"smiles": "O=C(c1cn(-c2ccccc2)nc1-c1ccc(Cl)s1)N1CCOCC1", "activity change, negative = inhibition": "inactive: -2.87%"}, {"smiles": "C(=C\\c1ccccc1)/CSc1nnc(-c2cnccn2)n1Cc1ccco1", "activity change, negative = inhibition": "inactive: -13.4%"}, {"smiles": "Cc1nc2nc(C)c(CCC(=O)NC(C)c3ccc4c(c3)OCCO4)c(C)n2n1", "note": "(stereo not given)", "Potency": "inconclusive: 25.1 µM [activator, single point]"}, {"smiles": "CCOC(=O)c1cnc(-n2nc(C)cc2C)nc1NCCc1ccccc1", "Potency": "inconclusive: 31.6 µM [inhibitor, single point]"}, {"smiles": "O=C(NC1CCCC1)C(c1ccncc1)N(Cc1cccs1)C(=O)c1csnn1", "note": "(stereo not given)", "activity change, negative = inhibition": "inactive: -3.8%"}, {"smiles": "CCOC(=O)[C@@H](O)Cc1cnc2ccccc2n1", "activity change, negative = inhibition": "inactive: -2.41% [at 11 µM]"}, {"smiles": "CC(C)C(=O)NCCn1ccc2ccccc21", "activity change, negative = inhibition": "inactive: 2.15%"}, {"smiles": "Nn1cnn(Cc2ccccc2)c1=S", "activity change, negative = inhibition": "inconclusive: 46.8%"}, {"smiles": "Cc1ccc(-n2ncc3c(=O)[nH]c(SCC(=O)N4CCCc5ccccc54)nc32)cc1", "activity change, negative = inhibition": "inactive: -2.24%"}, {"smiles": "N#C/C(=C\\c1ccc(O)c(O)c1)C(=O)Nc1ccccc1", "Potency": "active: 10 µM"}, {"smiles": "COc1ccc([N+](=O)[O-])c2c1CCN2C(=O)CC[C@H](N)C(=O)O", "activity change, negative = inhibition": "inactive: -0.324%"}, {"smiles": "Cc1nc2c(C)cccn2c1/C(O)=C1\\C(=O)C(=O)N(CCN(C)C)C1c1ccncc1", "note": "(stereo not given)", "activity change, negative = inhibition": "inconclusive: 46.3%"}, {"smiles": "CCN(CC)c1nc2ccccc2nc1C(C#N)C(=O)NCCCOC", "note": "(stereo not given)", "activity change, negative = inhibition": "inactive: -0.474%"}, {"smiles": "CN(Cc1ccccc1)c1oc(-c2ccco2)nc1C#N", "Potency": "inconclusive: 25.1 µM [inhibitor, partial curve]"}, {"smiles": "c1ccc(SC(Sc2ccccc2)c2ccc3c(c2)OCO3)cc1", "activity change, negative = inhibition": "inactive: 18.2% [at 11 µM]"}, {"smiles": "Cc1ccc2c(CSc3nnc(C4CC4)n3N)cc(=O)oc2c1C", "activity change, negative = inhibition": "inconclusive: 42.7%"}, {"smiles": "COc1ccc(OC)c(-c2cc(C(=O)NCCCn3ccnc3)no2)c1", "Potency": "inconclusive: 20 µM [inhibitor, partial curve]"}, {"smiles": "Cc1ccc(-c2cn3cccnc3n2)cc1NC(=O)c1ccc(Br)o1", "activity change, negative = inhibition": "inactive: -6.5%"}, {"smiles": "CCc1c2c(nc3ccc(OC)cc13)OC(C)C2", "note": "(stereo not given)", "activity change, negative = inhibition": "inactive: -6.84%"}]}]}
